Assay results reported in patent US20130045962A1, “PEPTIDE DEFORMYLASE INHIBITORS” (priority 2007, published 2013).
Some of these results come from one statement about several compounds together. For at least one compound, name, drawing or mass did not settle the structure.

The chains behind the UniProt entries cited, without tags or fusion partners. Where a name states a change or a piece, a line headed by the entry shows the natural chain unless it says otherwise.
UniProt P44786: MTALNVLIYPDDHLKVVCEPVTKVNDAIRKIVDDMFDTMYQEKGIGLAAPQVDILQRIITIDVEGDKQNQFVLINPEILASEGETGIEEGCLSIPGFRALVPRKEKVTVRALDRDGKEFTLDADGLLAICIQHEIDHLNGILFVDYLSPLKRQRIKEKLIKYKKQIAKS

Biological target: Haemophilus influenzae PDF (Haemophilus influenzae, UniProt P44786)
Experiment: PDF IC50 assay (FDH-coupled), H. influenzae PDF
Type: biochemical
Details: read-out: IC50, inhibition of H. influenzae PDF activity

Compound	IC50
O=CN(O)C[C@@H](CC1CCCC1)C(=O)NNc1nc(Cl)nc(N2CCN3CCC[C@H]3C2)c1F [Example 58, [(2R)-3-(2-{2-Chloro-5-fluoro-6-[(8aS)-hexahydropyrrolo[1,2-a]pyrazin-2(1H)-yl]-4-pyrimidinyl}hydrazino)-2-(cyclopentylmethyl)-3-oxopropyl]hydroxyformamide]	≤ 100 nM
CCCNc1nc(Cl)nc(NNC(=O)[C@H](CC2CCCC2)CN(O)C=O)c1F [Example 60, [(2R)-3-{2-[2-Chloro-5-fluoro-6-(propylamino)-4-pyrimidinyl]hydrazino}-2-(cyclopentylmethyl)-3-oxopropyl]hydroxyformamide]	≤ 100 nM
C[C@H]1CN(c2nc(Cl)nc(NNC(=O)[C@H](CC3CCCC3)CN(O)C=O)c2F)CCN1C [Example 61, [(2R)-3-(2-{2-Chloro-6-[(3S)-3,4-dimethyl-1-piperazinyl]-5-fluoro-4-pyrimidinyl}hydrazino)-2-(cyclopentylmethyl)-3-oxopropyl]hydroxyformamide]	≤ 100 nM
C[C@@H]1CN(c2nc(Cl)nc(NNC(=O)[C@H](CC3CCCC3)CN(O)C=O)c2F)CCN1C [Example 62, [(2R)-3-(2-{2-Chloro-6-[(3R)-3,4-dimethyl-1-piperazinyl]-5-fluoro-4-pyrimidinyl}hydrazino)-2-(cyclopentylmethyl)-3-oxopropyl]hydroxyformamide]	≤ 100 nM
C[C@@H]1CN(C)CCN1c1nc(Cl)nc(NNC(=O)[C@H](CC2CCCC2)CN(O)C=O)c1F [Example 63, [(2R)-3-(2-{2-Chloro-6-[(2R)-2,4-dimethyl-1-piperazinyl]-5-fluoro-4-pyrimidinyl}hydrazino)-2-(cyclopentylmethyl)-3-oxopropyl]hydroxyformamide]	≤ 100 nM
C[C@H]1CN(C)CCN1c1nc(Cl)nc(NNC(=O)[C@H](CC2CCCC2)CN(O)C=O)c1F [Example 64, [(2R)-3-(2-{2-Chloro-6-[(2S)-2,4-dimethyl-1-piperazinyl]-5-fluoro-4-pyrimidinyl}hydrazino)-2-(cyclopentylmethyl)-3-oxopropyl]hydroxyformamide]	≤ 100 nM
O=CN(O)C[C@@H](CC1CCCC1)C(=O)NNc1nc(Cl)nc(N2CCN3CCOC[C@@H]3C2)c1F [Example 65, [(2R)-3-(2-{2-Chloro-5-fluoro-6-[(9aS)-hexahydropyrazino[2,1-c][1,4]oxazin-8(1H)-yl]-4-pyrimidinyl}hydrazino)-2-(cyclopentylmethyl)-3-oxopropyl]hydroxyformamide]	≤ 100 nM
Cc1nc(NNC(=O)[C@H](CC2CCCC2)CN(O)C=O)c(F)c(N2CC[C@H]2CO)n1 [Example 66, N-[(2R)-2-(Cyclopentylmethyl)-3-(2-{5-fluoro-6-[(2S)-2-(hydroxymethyl)-1-azetidinyl]-2-methyl-4-pyrimidinyl}hydrazino)-3-oxopropyl]-N-hydroxyformamide]	≤ 100 nM
CN(C)c1nc(CF)nc(NNC(=O)[C@H](CC2CCCC2)CN(O)C=O)c1F [Example 67, ((2R)-2-(Cyclopentylmethyl)-3-{2-[6-(dimethylamino)-5-fluoro-2-(fluoromethyl)-4-pyrimidinyl]hydrazino}-3-oxopropyl)hydroxyformamide]	≤ 100 nM
O=CN(O)C[C@@H](CC1CCCC1)C(=O)NNc1nc(CF)nc(NC2CCC2)c1F [Example 68, [(2R)-3-{2-[6-(Cyclobutylamino)-5-fluoro-2-(fluoromethyl)-4-pyrimidinyl]hydrazino}-2-(cyclopentylmethyl)-3-oxopropyl]hydroxyformamide]	≤ 100 nM
Cc1nc(NCC(=O)N2CCCC2)c(F)c(NNC(=O)[C@H](CC2CCCC2)CN(O)C=O)n1 [Example 69, N-{(2R)-2-(Cyclopentylmethyl)-3-[2-(5-fluoro-2-methyl-6-{[2-oxo-2-(1-pyrrolidinyl)ethyl]amino}-4-pyrimidinyl)hydrazino]-3-oxopropyl}-N-hydroxyformamide]	≤ 100 nM
CCc1nc(NNC(=O)[C@H](CC2CCCC2)CN(O)C=O)c(F)c(N[C@H](C)C(=O)N2CCCC2)n1 [Example 70, N-{(2R)-2-(Cyclopentylmethyl)-3-[2-(2-ethyl-5-fluoro-6-{[(1R)-1-methyl-2-oxo-2-(1-pyrrolidinyl)ethyl]amino}-4-pyrimidinyl)hydrazino]-3-oxopropyl}-N-hydroxyformamide]	≤ 100 nM
CO[C@H]1CCN(c2nc(CF)nc(NNC(=O)[C@H](CC3CCCC3)CN(O)C=O)c2F)C1 [Example 71, [(2R)-2-(Cyclopentylmethyl)-3-(2-{5-fluoro-2-(fluoromethyl)-6-[(3S)-3-(methyloxy)-1-pyrrolidinyl]-4-pyrimidinyl}hydrazino)-3-oxopropyl]hydroxyformamide]	≤ 100 nM
CCCNc1nc(C)nc(NNC(=O)[C@H](CC2CCCC2)CN(O)C=O)c1F [Example 72, ((2R)-2-(Cyclopentylmethyl)-3-{2-[5-fluoro-2-methyl-6-(propylamino)-4-pyrimidinyl]hydrazino}-3-oxopropyl)hydroxyformamide]	≤ 100 nM
CCCNc1nc(CF)nc(NNC(=O)[C@H](CC2CCCC2)CN(O)C=O)c1F [Example 73, ((2R)-2-(Cyclopentylmethyl)-3-{2-[5-fluoro-2-(fluoromethyl)-6-(propylamino)-4-pyrimidinyl]hydrazino}-3-oxopropyl)hydroxyformamide]	≤ 100 nM
Cc1nc(NNC(=O)[C@H](CC2CCCC2)CN(O)C=O)c(F)c(N[C@H](C)C(=O)N(C)C)n1 [Example 74, N2-(6-{2-[(2R)-3-Cyclopentyl-2-{[formyl(hydroxy)amino]methyl}propanoyl]hydrazino}-5-fluoro-2-methyl-4-pyrimidinyl)-N,N-dimethyl-D-alaninamide]	≤ 100 nM
CCN1CCN(c2nc(OC)nc(NNC(=O)[C@H](CC3CCCC3)CN(O)C=O)c2F)CC1 [Example 75, ((2R)-2-(Cyclopentylmethyl)-3-{2-[6-(4-ethyl-1-piperazinyl)-5-fluoro-2-(methyloxy)-4-pyrimidinyl]hydrazino}-3-oxopropyl)hydroxyformamide]	≤ 100 nM
CN(C)[C@@H]1CCN(c2nc(C(F)F)nc(NNC(=O)[C@H](CC3CCCC3)CN(O)C=O)c2F)C1 [Example 76, [(2R)-2-(Cyclopentylmethyl)-3-(2-{2-(difluoromethyl)-6-[(3R)-3-(dimethylamino)-1-pyrrolidinyl]-5-fluoro-4-pyrimidinyl}hydrazino)-3-oxopropyl]hydroxyformamide]	≤ 100 nM
CCc1nc(NNC(=O)[C@H](CC2CCCC2)CN(O)C=O)c(F)c(N[C@H](C)C(=O)N(C)C)n1 [Example 77, N2-(6-{2-[(2R)-3-Cyclopentyl-2-{[formyl(hydroxy)amino]methyl}propanoyl]hydrazino}-2-ethyl-5-fluoro-4-pyrimidinyl)-N,N-dimethyl-D-alaninamide]	≤ 100 nM
CCCCNc1nc(C)nc(NNC(=O)[C@H](CC2CCCC2)CN(O)C=O)c1F [Example 78, N-[(2R)-3-{2-[6-(Butylamino)-5-fluoro-2-methyl-4-pyrimidinyl]hydrazino}-2-(cyclopentylmethyl)-3-oxopropyl]-N-hydroxyformamide]	≤ 100 nM
CC[C@H](Nc1nc(OC)nc(NNC(=O)[C@H](CC2CCCC2)CN(O)C=O)c1F)C(=O)N1CCCC1 [Example 79, {(2R)-2-(Cyclopentylmethyl)-3-[2-(5-fluoro-2-(methyloxy)-6-{[(1S)-1-(1-pyrrolidinylcarbonyl)propyl]amino}-4-pyrimidinyl)hydrazino]-3-oxopropyl}hydroxyformamide]	≤ 100 nM
COc1nc(NNC(=O)[C@H](CC2CCCC2)CN(O)C=O)c(F)c(N2CCN(C)[C@H](C)C2)n1 [Example 80, ((2R)-2-(Cyclopentylmethyl)-3-{2-[6-[(3R)-3,4-dimethyl-1-piperazinyl]-5-fluoro-2-(methyloxy)-4-pyrimidinyl]hydrazino}-3-oxopropyl)hydroxyformamide]	≤ 100 nM
CN(C)[C@H]1CCN(c2nc(C(F)F)nc(NNC(=O)[C@H](CC3CCCC3)CN(O)C=O)c2F)C1 [Example 81, [(2R)-2-(Cyclopentylmethyl)-3-(2-{2-(difluoromethyl)-6-[(3S)-3-(dimethylamino)-1-pyrrolidinyl]-5-fluoro-4-pyrimidinyl}hydrazino)-3-oxopropyl]hydroxyformamide]	≤ 100 nM
O=CN(O)C[C@@H](CC1CCCC1)C(=O)NNc1nc(C(F)F)nc(NC2CC2)c1F [Example 82, ((2R)-2-(Cyclopentylmethyl)-3-{2-[6-(cyclopropylamino)-2-(difluoromethyl)-5-fluoro-4-pyrimidinyl]hydrazino}-3-oxopropyl)hydroxyformamide]	≤ 100 nM
CC[C@H](Nc1nc(C)nc(NNC(=O)[C@H](CC2CCCC2)CN(O)C=O)c1F)C(=O)N(C)C [Example 83, (2S)-2-[(6-{2-[(2R)-3-Cyclopentyl-2-{[formyl(hydroxy)amino]methyl}propanoyl]hydrazino}-5-fluoro-2-methyl-4-pyrimidinyl)amino]-N,N-dimethylbutanamide]	≤ 100 nM
CCc1nc(NNC(=O)[C@H](CC2CCCC2)CN(O)C=O)c(F)c(N[C@@H](CC)C(=O)N(C)C)n1 [Example 84, (2S)-2-[(6-{2-[(2R)-3-Cyclopentyl-2-{[formyl(hydroxy)amino]methyl}propanoyl]hydrazino}-2-ethyl-5-fluoro-4-pyrimidinyl)amino]-N,N-dimethylbutanamide]	≤ 100 nM
Cc1nc(NNC(=O)[C@H](CC2CCCC2)CN(O)C=O)c(F)c(N[C@H]2CCCCN(C)C2=O)n1 [Example 85, {(2R)-2-(Cyclopentylmethyl)-3-[2-(5-fluoro-2-methyl-6-{[(3S)-1-methyl-2-oxohexahydro-1H-azepin-3-yl]amino}-4-pyrimidinyl)hydrazino]-3-oxopropyl}hydroxyformamide]	≤ 100 nM
CC[C@H](Nc1nc(OC)nc(NNC(=O)[C@H](CC2CCCC2)CN(O)C=O)c1F)C(=O)N(C)C [Example 86, (2S)-2-{[6-[2-((2R)-3-Cyclopentyl-2-{[formyl(hydroxy)amino]methyl}propanoyl)hydrazino]-5-fluoro-2-(methyloxy)-4-pyrimidinyl]amino}-N,N-dimethylbutanamide]	≤ 100 nM
